Measurements: paper PMC11558822, “Myc 9aaTAD activation domain binds to mediator of transcription with superior high affinity” (Molecular Medicine, 2024)
No constants are given. Whether binding was seen depends on the method and setting.

Sequences of proteins named here, by UniProt entry; tags and fusion partners are left off. A change or cut given only in a name is not applied to a line headed by its entry. A line that says so, or that is headed by a name, gives the form on record, which may keep a tag or linker.
KIX domain of CBP coactivator (region 586-672) (P45481, form named): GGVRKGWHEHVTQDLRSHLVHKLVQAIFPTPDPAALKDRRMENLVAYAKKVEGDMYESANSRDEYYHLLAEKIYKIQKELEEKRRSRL

Target: T1, native Sp1 9aaTAD peptide (Biotin-GSS-…)
T1 sequence (peptide, Biotin on the N-terminus): GSSGQVSWQTLQLQNLQ
Assay: BLI; biotinylated Sp1 or Sp1-Ac peptide immobilised, KIX in solution in the 3-16 uM range; steady-state analysis, 1:1 model; apparent KD; both purified

binding: no binding (tested: 3–16 μM)
Substance: KIX domain of CBP coactivator (region 586-672) (from UniProt P45481 586-672) (domain or fragment)
